# Measurements as given in patent US20200261391A1, “METHODS OF REDUCING THE RISK OF A CARDIOVASCULAR EVENT IN A STATIN-TREATED SUBJECT BY INCREASING SERUM AND PLASMA EPA AND DPA LEVELS” (Amarin Pharmaceuticals Ireland Limited, priority 2019, published 2020).
# “Also recorded” adds a separate entry of the source. For at least one compound, name, drawing or mass did not settle the structure.
# Columns and labels:
# Assay type in all cases: in vivo, human
# [1] = system: patients with elevated triglyceride levels on statin therapy; test: REDUCE-IT total (first and subsequent) ischemic events (Example 3; negative binomial, Wei-Lin-Weissfeld, Andersen-Gill, joint frailty models)
# Text: The following study was a multi-center, placebo-controlled clinical trial the details of which are described above in Example 1, the REDUCE-IT design. […] The main outcomes were total primary composite endpoint events defined as cardiovascular death, nonfatal myocardial infarction, nonfatal stroke, coronary revascularization, or hospitalization for unstable angina and total key secondary composite endpoint events defined as cardiovascular death, nonfatal myocardial infarction, or nonfatal stroke. In the context of this study, total events refer to any first event as well as any subsequent event. Differences in total events were determined using other statistical models, including Andersen-Gill, Wei-Lin-Weisfeld (Li and Lagakos), both pre-specified, and a post hoc and joint-frailty analysis.
# For the present prespecified analysis, the primary outcome was the total of first plus subsequent ischemic events consisting of the composite of cardiovascular death, nonfatal myocardial infarction, nonfatal stroke, coronary revascularization, or hospitalization for unstable angina. […] Exploratory analyses of the total of first and subsequent events were also performed for the key secondary composite endpoint.
# Baseline characteristics were compared between treatment groups using the chi-squared test for categorical variables and the Wilcoxon rank sum test for continuous variables. There are several methods for analyzing first and subsequent (recurrent) event data. As a pre-specified statistical method, a negative binomial regression was used to calculate rates and rate ratios for total cardiovascular events, which accounts for the variability in each patient's risk of events. As pre-specified supportive analyses, the modified Wei-Lin-Weissfeld method (Li and Lagakos modification) was used to calculate hazard ratios (HRs) for the time to the first event, second event, or third event. An additional pre-specified analysis, the Andersen-Gill model using a Cox proportional-hazard with the counting-process formulation was performed to model the total events. In addition, in order to account for informative censoring due to cardiovascular death, the HR for total non-fatal events was calculated using a joint frailty model (See Rondeau V. Joint frailty models for recurring events and death using maximum penalized likelihood estimation: application on cancer events. Biostatistics. 2007; 8:708-21). The joint frailty model simultaneously estimates hazard functions for non-fatal and fatal CV events and takes into account the fact that patients who are prone to have nonfatal events have an elevated risk of a cardiovascular death. […]
# Statistical analyses using the full adjudicated endpoint events dataset without exclusions using this bundling approach were also determined.
# [2] = system: patients with elevated triglyceride levels on statin therapy; test: REDUCE-IT endpoints by EPA blood level tertile in the icosapent ethyl group compared to placebo; conditions: FIGS. 57 and 58; tertiles ≤20, >20 to ≤34.2, >34.2 μg/mL; history of PAD
# Description: To assess the relationship between on-treatment hsCRP and the primary and key secondary endpoints, subgroup analyses were carried out as done for the ITT population for patients grouped according to values greater or equal to or less than […] at baseline and at 2 years. To assess the relationship between on-treatment serum EPA and the primary and key secondary endpoints, Kaplan-Meier (KM) curves were produced for AMR101 treated patients grouped into tertiles based on their values at year 1 and were compared with the placebo-treated patients.
# This is a study aimed towards determining a relative risk reduction (RRR) between subjects stratified by EPA tertiles in the REDUCE-IT clinical trial described above in Example 1. Samples were obtained from those subjects and total EPA and AA levels in human serum and plasma samples were determined according at least to the methods described in Example 7.
# The objective of this study is to assess the effects of administering icosapent ethyl at 4 g per day to patients from the REDUCE-IT trial of Example 1. More specifically, patients from the REDUCE-IT trial of Example 1 were stratified by their EPA levels into one of three tertiles. […] The data was further analyzed use both pooled and unpooled statistically methods.
# [3] = system: patients with elevated triglyceride levels on statin therapy; test: REDUCE-IT recurrent and total ischemic events (Example 2; Andersen-Gill and Wei-Lin-Weissfeld models)
# Text: The following study was a multi-center, placebo-controlled clinical trial the details of which are described above in Example 1, the REDUCE-IT design. […] Randomization was stratified by cardiovascular risk cohort (i.e., secondary or primary prevention), use of ezetimibe, and by geographic region.
# The primary outcome for the study was total recurrent events consisting of the composite of cardiovascular death, nonfatal myocardial infarction, nonfatal stroke, coronary revascularization, or hospitalization for unstable angina. Recurrent event analyses were also performed for the key secondary endpoint, a composite of cardiovascular death, non-fatal myocardial infarction, or non-fatal stroke. For each of these composite endpoints, the effects of icosapent ethyl in the secondary and primary prevention strata were examined separately.
# Demographic and baseline disease characteristics are presented using frequencies and percentages for categorical variables and medians with interquartile ranges for continuous variables. Between treatment group comparisons were derived using the chi-square test for categorical variables and Wilcoxon rank test for continuous variables. All clinical endpoint events used in the efficacy analyses were adjudicated by an independent Clinical Endpoint Committee (CEC) who were blinded to the treatment assignment. Since the primary efficacy endpoint was the time from randomization to the first occurrence of any component of the composite endpoint, and recurrence of such events within each patient is possible, a pre-specified analysis using a Cox proportional-hazard with the counting-process formulation of Andersen and Gill was performed to model the first and all recurrent cardiovascular events. Hazard ratios (HR) and corresponding 95% confidence intervals (CI) are reported from this model. In addition, as a marginal model and an extension of survival models based on the Cox proportional hazard model, the modified Wei-Lin-Weissfeld (WLW) method for analysis of recurrent events in the presence of deaths was carried out as a supportive analysis. In addition, as pre-specified, a recurrent event analysis using the Andersen-Gill and Wei-Lin-Weissfeld methods were carried out for the individual primary event components other than CV death. Though not pre-specified, additional recurrent event analyses were performed for the key secondary endpoint, which is a composite of CV death, non-fatal MI, or non-fatal stroke, and for the primary endpoint and the key secondary endpoint in the primary and secondary prevention strata to explore further the consistency of clinical benefit of icosapent ethyl. In subgroup analyses of the two cardiovascular risk strata (i.e., primary and secondary prevention), site-level discrepancies in cardiovascular risk group assignment occurring at entry and detected during the study (1.8%) were adjusted to conform with documented medical history data prior to randomization. All efficacy analyses were performed according to the intention-to-treat principle. All tests were based on a 2-sided nominal significance level of 5% with no adjustments for multiple comparisons.
# [4] = system: patients with elevated triglyceride levels on statin therapy with established cardiovascular disease or at high risk; test: REDUCE-IT trial: time to first occurrence of adjudicated cardiovascular endpoint events, AMR101 4 g daily vs placebo; conditions: for influence of achieved triglyceride level at 1 year on efficacy vs placebo (primary or key secondary endpoint): above or below 150 mg/dL at 1 year; for influence of baseline triglyceride levels on primary and/or key secondary endpoint outcomes: ≥150 vs. <150 mg/dL or ≥200 or <200 mg/dL, prespecified subgroups
# Text: The following study, also referred to as the REDUCE-IT clinical trial, was a large cardiovascular (CV) outcome trial designed to assess CV risk reduction benefit of AMR101 treatment (commercially known as VASCEPA®) versus placebo on the 5-point primary composite endpoint: CV death, non-fatal stroke, non-fatal myocardial infarction (MI), coronary revascularizations, or unstable angina requiring hospitalization.
# A multi-center, prospective, randomized, double-blind, placebo-controlled, parallel-group study was performed to evaluate the effect of AMR101 (4 g per day) on cardiovascular health and mortality in hypertriglyceridemic patients with cardiovascular disease or at high risk for cardiovascular disease. The intended expanded indication of the study was treatment with AMR101 as an add-on to statin therapy to reduce the risk of cardiovascular events in patients with clinical cardiovascular disease or with multiple risk factors for cardiovascular disease.
# The primary objective of this study was, in patients at LDL-C goal while on statin therapy, with established cardiovascular disease (CVD) or at high risk for CVD, and hypertriglyceridemia (e.g., fasting triglycerides(TG)≥200 mg/dL and <500 mg/dL), to evaluate the effect of AMR101 4 g daily on time from randomization to first occurrence of any component of the composite of the following major CV events: CV death; nonfatal MI; (including silent MI; electrocardiograms (ECGs) were performed annually for the detection of silent MIs); nonfatal stroke; coronary revascularization; and unstable angina determined to be caused by myocardial ischemia by invasive/non-invasive testing and requiring emergent hospitalization.
# The key secondary objective of this study was to evaluate the effect of AMR101 4 g daily on the time from randomization to the first occurrence of the composite of following major CV events: CV death, nonfatal MI (including silent MI), and nonfatal stroke.
# Other secondary objectives for this study were to evaluate the effect of therapy on time from randomization to the first occurrence of the following individual or composite endpoints: composite of CV death or nonfatal MI (including silent MI); fatal or nonfatal MI (including silent MI); non-elective coronary revascularization represented as the composite of emergent or urgent classifications; CV death; unstable angina determined to be caused by myocardial ischemia by invasive/non-invasive testing and requiring emergent hospitalization; fatal or nonfatal stroke; composite of total mortality, nonfatal MI (including silent MI), or nonfatal stroke; and total mortality.
# Primary Efficacy Endpoint: The primary efficacy endpoint was time from randomization to the first occurrence of the composite of the following clinical events: CV death; nonfatal MI (including silent MI; ECGs were performed annually for the detection of silent MIs); nonfatal stroke; coronary revascularization; and unstable angina determined to be caused by myocardial ischemia by invasive/non-invasive testing and requiring emergent hospitalization. The first occurrence of any of these major adverse vascular events during the follow-up period of the study were included in the incidence.
# Secondary Efficacy Endpoints: The key secondary efficacy endpoint was the time from randomization to the first occurrence of the composite of CV death, nonfatal MI (including silent MI), or nonfatal stroke. […]
# [5] = system: patients with elevated triglyceride levels on statin therapy; test: REDUCE-IT ischemic events as a function of baseline triglyceride tertile (Example 4)
compound,measurement,setting,value
"CC/C=C\C/C=C\C/C=C\C/C=C\C/C=C\CCCC(=O)OCC [icosapent ethyl, eicosapentaenoic acid ethyl ester]","times to first, second, and third occurrence of the primary and secondary endpoints vs placebo",[1]; FIG. 35,significantly reduced
same,"times to first, second, third or fourth occurrence of the primary composite endpoint",[1]; FIG. 35,consistently reduced
same,total events for each individual component of the primary endpoint,[1]; FIG. 36,significantly reduced
same,total and time to first primary and key secondary endpoints vs placebo,[1]; FIGS. 34A and 34B,significantly reduced
same,"differential treatment effects by baseline EPA tertile, primary and key secondary endpoints",[2],did not suggest differential treatment effects
same,"first, second, and recurrent ischemic events vs placebo",[3]; FIG. 13,reduced
same,"times to first, second, third, or fourth occurrences of the primary composite endpoint vs placebo",[3]; FIG. 17,consistently reduced
same,total events for each component of the primary endpoint,[3]; FIG. 20,significantly reduced
same,overall cumulative primary endpoints,"[3]; FIGS. 14, 24",reduced
same,"cumulative primary endpoints, secondary prevention cohort","[3]; FIGS. 15, 26",reduced
same,"cumulative primary endpoints, primary prevention cohort","[3]; FIGS. 16, 28",reduced
same,overall cumulative key secondary endpoints,"[3]; FIGS. 21, 25",reduced
same,"cumulative key secondary endpoints, secondary prevention cohort","[3]; FIGS. 22, 27",reduced
same,"cumulative key secondary endpoints, primary prevention cohort","[3]; FIGS. 23, 29",reduced
same,reducing total ischemic events compared to placebo,[3]; in vivo,superior
same,"all individual and composite ischemic endpoints, prespecified hierarchical testing","[4]; FIG. 11, except death from any cause",significantly reduced
same,influence of achieved triglyceride level at 1 year on efficacy vs placebo (primary or key secondary endpoint),[4],no influence
same,influence of achieved triglyceride level at 1 year on efficacy vs placebo (primary or key secondary endpoint),[4]; listed as AMR101,did not influence
same,"Amputation for PVD, n/N",[4]; adjudicated tertiary endpoint,22/4089
same,"Cardiac Arrest, n/N",[4]; adjudicated tertiary endpoint,22/4089
same,"Cardiac Arrhythmias Requiring Hospitalization of ≥24 Hours, n/N",[4]; adjudicated tertiary endpoint,188/4089
same,"Carotid Revascularization, n/N",[4]; adjudicated tertiary endpoint,31/4089
same,"Coronary Revascularization, n/N",[4]; adjudicated tertiary endpoint,376/4089
same,"Elective Revascularization, n/N",[4]; adjudicated tertiary endpoint,194/4089
same,"Emergent Revascularization, n/N",[4]; adjudicated tertiary endpoint,41/4089
same,"Hemorrhagic Stroke, n/N",[4]; adjudicated tertiary endpoint,13/4089
same,"Ischemic Stroke, n/N",[4]; adjudicated tertiary endpoint,80/4089
same,"New Heart Failure Requiring Hospitalization, n/N",[4]; adjudicated tertiary endpoint,141/4089
same,"New Heart Failure, n/N",[4]; adjudicated tertiary endpoint,169/4089
same,"Primary Endpoint in Patients with Diabetes at Baseline, n/N",[4]; adjudicated tertiary endpoint,433/2394
same,"Salvage Revascularization, n/N",[4]; adjudicated tertiary endpoint,0/4089
same,"Transient Ischemic Attack, n/N",[4]; adjudicated tertiary endpoint,64/4089
same,"Urgent Revascularization, n/N",[4]; adjudicated tertiary endpoint,181/4089
same,"New Onset of Diabetes, n/N",[4]; patients with diabetes at baseline excluded,65/1695
same,influence of baseline triglyceride levels on primary and/or key secondary endpoint outcomes,[4],did not influence; also recorded: appeared similar
same,influence of baseline triglyceride levels on primary and/or key secondary endpoint outcomes,[4]; listed as AMR101,no influence
same,total (first and subsequent) primary composite endpoint events across the entire triglyceride range and within each triglyceride tertile,[5]; FIG. 47,reduced
same,time to first event of the primary composite endpoint across the entire triglyceride range,[5]; FIG. 48,reduced
